# Test results from PubChem BioAssay AID2685 (National Center for Advancing Translational Sciences (NCATS), 2010).
# This is one part of the list. These are further read-outs of the screen, such as a control signal, another cell line or another target. No call is given for them. The list favours compounds with an active or inconclusive main result. The note in brackets gives the kind of curve behind each potency; many fits are weak.
# Test: qHTS Assay for Lipid Storage Modulators in Drosophila S3 Cells;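 for cell number change: cells counted by Cell Tracker Red CMTPX staining in the red channel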
# Conditions: BODIPY lipid droplet fluorescence, 18-24 h; for cell number change: measured here: cell count max response, cells fed with added oleic acid
# How it was run: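 Drosophila S3 cells got compounds at several concentrations plus oleic acid (400 uM solution). Laser-scanning cytometry with 488 nm excitation read lipid droplets at 500-530 nm and cells at 575-640 nm. Percent activity was relative to 20 uM Triacsin C.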
# [1] = measured here: cell number channel AC50, cells fed with added oleic acid
# [2] = measured here: lipid fluorescence (Fed channel) AC50, cells fed with added oleic acid
Structure (SMILES),cell number change [%],AC50 [1],AC50 [2]
O=C(Nc1ccncc1)c1ccc(NS(=O)(=O)c2cccc(F)c2)cc1,-18.9,,
Cc1n[nH]c(C)c1S(=O)(=O)N1CCCC(C(=O)Nc2ccc(Br)cc2)C1 (centres undefined),3.8,,
CCn1c(SCC(=O)N2CCCC2)nnc1-c1ccc(S(=O)(=O)N2CCCCCC2)cc1,-0.0913,"0.92 µM [falling, full curve, poor fit]","0.58 µM [falling, full curve]"
Cc1ccc(NC(=O)[C@@H]2CCC(=O)N2C2OC(=O)c3ccccc32)cc1Cl (some centres undefined),5.83,,"2.91 µM [falling, single point]"
CC1CCCCN1CCCNC(=O)c1nn(C)c2c1CSc1ccccc1-2 (centres undefined),19.9,,
CCOC(=O)c1ccc(NC(=O)c2nccnc2C(=O)O)cc1,,,"1.16 µM [rising, single point]"
O=C(O)C(Cc1ccccc1)N1C(=O)CCC1=O (centres undefined),,,"20.6 µM [falling, partial curve]"
O=C(CSc1nc2ccccc2n1S(=O)(=O)c1cccc([N+](=O)[O-])c1)NCc1cccs1,13.9,,"6.51 µM [rising, single point]"
COc1ccccc1NC(=O)N1CCN(CCc2ccccc2)CC1,26,,"6.51 µM [rising, single point]"
COc1ccc(C)cc1Nc1n[n+](-c2ccccc2)c(-c2ccc(NC(C)=O)cc2)s1,-8.08,,
Cc1ccccc1C(=O)NC(=S)NC1CC1,41.4,"1.3 µM [rising, full curve, poor fit]",
COc1c(C)cccc1C(=O)Nc1ccc(CN2CCCCC2)cc1,18.6,,"23.1 µM [rising, single point]"
CC(=O)NCCC(=O)Nc1cccc(S(=O)(=O)N(C)c2ccccc2)c1,11.7,,"16.4 µM [rising, single point]"
Cc1ccc(C(=O)OCC(=O)Nc2ccc3[nH]c(=O)[nH]c3c2)cc1[N+](=O)[O-],-2.24,,"0.731 µM [falling, full curve]"
CC(SC1=Nc2ccccc2C2CC=NN12)C(=O)NC1(C#N)CCCCC1 (centres undefined),-73.8,"2.59 µM [falling, full curve]","8.2 µM [falling, partial curve]"
Cc1[nH]n(C(C)(C)C)c(=O)c1Sc1ccc(Cl)cc1,-5.05,,"0.517 µM [rising, single point]"
O=C(NCCCO)c1ccc2[nH]c3c(c2c1)CCCC3,,"1.84 µM [rising, partial curve]","1.3 µM [rising, partial curve]"
O=C(CCNC(=O)c1ccco1)NCc1ccccc1,-25.5,"2.59 µM [falling, single point]","5.17 µM [falling, single point]"
COc1ccc2cc(C(=O)C3CCCN(Cc4cnc(N5CCOCC5)s4)C3)ccc2c1 (centres undefined),-7.16,,"0.00461 µM [falling, full curve, poor fit]"
CCN(CC)N=Nc1ccc(C(=O)O)cc1,,"0.00461 µM [falling, full curve, poor fit]","3.26 µM [falling, partial curve, poor fit]"
CN(C)c1cccc(C(=O)OCC(=O)NC2CCCC2)c1,,"6.51 µM [rising, single point]",

Structure (SMILES),cell number change [%],AC50 [1],AC50 [2]
CCOC(=O)c1ccn(CSc2c(F)c(F)cc(F)c2F)n1,-2.86,,
NNc1nc(Nc2ccc([N+](=O)[O-])cc2)nc(N2CCCCCC2)n1,-26.1,,"29.1 µM [rising, partial curve]"
CN(C)S(=O)(=O)c1ccc(Cl)c(NC(=O)CN2CCCCCC2)c1,-19.7,,"3.66 µM [falling, full curve]"
CN(C)CCN=Cc1c(O)n(Cc2ccccc2)c(=O)c2ccccc12,26.4,,"0.058 µM [falling, full curve, poor fit]"
CCc1ccc(N(C(=O)CNC(=O)c2ccco2)C(C(=O)NC2CCCC2)c2cccnc2)cc1 (centres undefined),2.5,,"0.0731 µM [falling, full curve, poor fit]"
CC(C)(C)c1ccc2c(c1)OC(C(=O)N/N=C\c1ccc[nH]1)CO2 (centres undefined),-2.31,,"0.103 µM [rising, single point]"
CC(=O)c1ccc(OCc2cc(C(=O)NC(C)Cc3ccccn3)no2)cc1 (centres undefined),-12.5,,
CC(O)c1nc2ccccc2n1CCCOc1ccccc1 (centres undefined),16.8,,"3.66 µM [rising, full curve]"
CCOc1cc(/C=N\NC(=O)Cn2nnc3ccccc32)ccc1O,,,"0.116 µM [rising, single point]"
CC(CCc1ccccc1)NC(=O)/C=C/c1ccc(Cl)cc1 (centres undefined),5.63,,"9.2 µM [rising, partial curve, poor fit]"
COc1cccc(-c2noc(C3CCCN(C(=O)c4ccccc4OC)C3)n2)c1 (centres undefined),-21.1,,
Cc1cc(/C=N/NC(=O)c2cccc(N(C)C)c2)c(C)n1-c1cc(C(=O)O)cc(C(=O)O)c1,-0.553,,"6.51 µM [falling, single point]"
COc1cccc(NC(=O)NC2(C(=O)N3CCN(C)CC3)CCCCC2)c1,1.26,,
COc1ccc(O)c(-c2c(-c3ccc(Cl)cc3)n[nH]c2C)c1,,"0.103 µM [rising, full curve, poor fit]","2.91 µM [rising, partial curve]"
O=C(Nc1cccc(O)c1)c1cccc(S(=O)(=O)N2CCCCCC2)c1,-2.42,,
O=S(=O)(Nc1ccc2c(c1)OCO2)c1ccc(Cl)cc1F,19.8,,
COc1cc(C(=O)NCc2cc3ccccc3n2C)cc(OC)c1OC,-6.2,,
c1ccc(Cn2c(-c3ccco3)nc3nc4ccccc4nc32)cc1,-52.9,"11.6 µM [falling, partial curve]","14.6 µM [falling, partial curve]"
COc1ccc(Cl)cc1C(=O)N1CCN(Cc2ccc3c(c2)OCO3)CC1,14.4,"0.00651 µM [rising, full curve, poor fit]",
Cc1ccccc1N(CC(=O)Nc1ccc(F)cc1)S(C)(=O)=O,30.2,"0.517 µM [rising, full curve]",
COC(=O)CCC(=O)Nc1sc(C)c(C)c1C(N)=O,-37.1,"18.4 µM [falling, partial curve, poor fit]",

Structure (SMILES),cell number change [%],AC50 [1],AC50 [2]
CCOc1cc(C(=O)NCc2ccc(-c3nc4ccccc4o3)cc2)cc(OCC)c1OCC,-37.2,"5.8 µM [falling, full curve, poor fit]","3.66 µM [falling, full curve, poor fit]"
CC(=O)OCC1(C)CN(c2ccccc2)N(C(C)=O)C1=O (centres undefined),54.4,"0.651 µM [rising, full curve, poor fit]","0.231 µM [rising, full curve, poor fit]"
CCN(CC(=O)Nc1ccc(NC(C)=O)cc1)C(=O)c1ccc(C(=O)c2ccccc2)cc1,2.06,,"18.4 µM [rising, single point]"
Cc1cccc(NC(=O)COC(=O)CCc2c[nH]c3ccccc23)c1,-48.9,"29.1 µM [falling, single point]",
COc1ccc(C(C(=O)NC2CCCCC2)N(C(=O)c2sc(C)nc2C)c2ccccc2)cc1 (centres undefined),-31.8,"32.6 µM [falling, single point]","6.51 µM [falling, single point]"
CCCc1cnc(N2CCN(C(=O)c3ccccc3)CC2)nc1,,,"7.31 µM [rising, partial curve]"
CCCn1c(=O)[nH]c(=O)c2c1nc(-c1ccc(C(F)(F)F)cc1)n2CCOC,7.14,,"10.3 µM [rising, partial curve, poor fit]"
COCCN(C(=O)CSc1cc(C)c2ccccc2n1)c1c(N)n(CC(C)C)c(=O)[nH]c1=O,-0.775,,"6.51 µM [rising, single point]"
O=C(CSc1nnc(-c2ccc(Cl)s2)o1)N1CCOCC1,-8.82,,"16.4 µM [rising, single point]"
COC(=O)c1cc(Br)c(=O)n(Cc2ccc(OC)c(OC)c2)c1,9.55,,"0.651 µM [rising, partial curve]"
CCOC(=O)c1cc2c(=O)n3cccc(C)c3nc2n(CC(C)C)c1=NC(=O)c1ccco1,4.01,"0.517 µM [falling, full curve]","0.259 µM [falling, partial curve]"
CCC(OCC(O)CN1CCCCC1)c1ccccc1 (centres undefined),26,,
O=C(Cc1cccc2ccccc12)NNC(=O)Nc1ccc(Cl)cc1,-6.89,,
Fc1ccccc1/C=C1\CCCC2=C1Nc1ncnn1C2c1ccccc1F (centres undefined),-57.5,"25.9 µM [falling, partial curve, poor fit]","32.6 µM [falling, partial curve]"
CCOC(=O)C1=C(C)N(C)C(=O)NC1c1c(C)nn(-c2ccccc2)c1C (centres undefined),-6.79,,
CN1C(=O)CC(N2CCC(c3nc4ccccc4[nH]3)CC2)C1=O (centres undefined),5.57,,"3.66 µM [rising, single point]"
OC(CN1CCOCC1)c1ccc(F)cc1 (centres undefined),-27.1,,"0.82 µM [falling, full curve, poor fit]"
Oc1ccccc1-c1cc(-c2ccc(F)cc2)n[nH]1,-31,"32.6 µM [falling, single point]","29.1 µM [falling, single point]"
COc1ccc(CCNC(=O)C(C)SCc2ccccc2)cc1 (centres undefined),6.75,,
Cn1c(N)cc(=O)n(Cc2ccccc2)c1=O,3.02,,"3.26 µM [rising, full curve, poor fit]"

# Individual results from the results shown.
# AC50 [1], `COc1ccc(C(C(=O)NC2CCCCC2)N(C(=O)c2sc(C)nc2C)c2ccccc2)cc1` (centres undefined) is entered as 32.6 µM [falling, single point]
# AC50 [2], `Cn1c(N)cc(=O)n(Cc2ccccc2)c1=O` is entered as 3.26 µM [rising, full curve, poor fit]
# AC50 [2], `CCOc1cc(C(=O)NCc2ccc(-c3nc4ccccc4o3)cc2)cc(OCC)c1OCC` is entered as 3.66 µM [falling, full curve, poor fit]
# AC50 [1], `Oc1ccccc1-c1cc(-c2ccc(F)cc2)n[nH]1` is entered as 32.6 µM [falling, single point]
